Assay results as given in PubChem BioAssay AID284 (DTP/NCI, 2004).
The list is a part of this screen's results and no random one: it gathers some chemical classes. Not every dose and run of a compound is shown. T/C is the treated group as % of the vehicle group. Where survival is the endpoint, the PubChem record calls one and a half times the control and up active, and a quarter to a half above the control has no call in these data; cut-offs in other NCI protocols can differ. Some entries show no survivor count and are marked so; the dose need not have been tolerated. Schedule codes are those of the source, taken here to give the interval after Q, in days (D) or hours (H), and the number of doses after X. Some schedule codes hold Z or #, which are not explained here. Some doses were run more than once; their values stand side by side, smallest first.

Test system: BDF1 mice, L1210/MTX-resistant leukemia ip, survival T/C
Assay: NCI In Vivo Anticancer Drug Screen. Data for tumor model L1210 Leukemia resistant to Methotrexate; NSC 740 (intraperitoneal) in B6D2F1 (BDF1) mice
Details: T/C endpoint: mean survival time, schedule: Q01DX Z (ip), vehicle: saline, higher T/C = longer survival
Description: The antitumor activity of compounds was measured in mice bearing transplantable tumors. Survival or tumor size were measured and the results are expressed as the measurement made in the treated group (T) divided by the measurement made in the vehicle treated control group (C). The tumor model used in this assay is L1210 Leukemia resistant to Methotrexate; NSC 740 (intraperitoneal) in B6D2F1 (BDF1) mice

## CN(CCCl)CCCl
dose: 0.25 mg/kg/injection
  T/C: 120 [survivor count not shown], 131 [survivor count not shown], 170 % of control [survivor count not shown]
dose: 0.5 mg/kg/injection
  T/C: 99 [survivor count not shown] and 156 % of control [survivor count not shown]
dose: 1.0 mg/kg/injection
  T/C: 89 % of control [survivor count not shown]
